This note sets out measurements from publication PMC4783006.

Sequences of proteins named here, by UniProt entry; tags and fusion partners are left off.
UniProt Q9FDX8: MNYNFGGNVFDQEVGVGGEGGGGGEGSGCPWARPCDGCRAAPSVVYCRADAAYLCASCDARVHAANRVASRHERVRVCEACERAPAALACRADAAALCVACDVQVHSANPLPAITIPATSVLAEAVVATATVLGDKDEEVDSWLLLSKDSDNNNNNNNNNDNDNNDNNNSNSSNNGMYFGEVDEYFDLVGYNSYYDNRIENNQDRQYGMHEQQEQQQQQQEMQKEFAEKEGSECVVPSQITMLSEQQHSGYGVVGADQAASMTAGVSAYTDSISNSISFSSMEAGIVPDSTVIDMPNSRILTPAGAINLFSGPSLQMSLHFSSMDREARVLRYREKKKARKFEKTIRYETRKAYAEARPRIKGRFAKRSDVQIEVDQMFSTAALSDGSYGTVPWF

No constants are given. Whether binding was seen depends on the method and setting. Tags and fused reporters may be left off the sequences shown.

The assay addresses T1, OsK4, yeast two-hybrid fusion (rice (Oryza sativa)) (UniProt Q852Q1).
T1 sequence: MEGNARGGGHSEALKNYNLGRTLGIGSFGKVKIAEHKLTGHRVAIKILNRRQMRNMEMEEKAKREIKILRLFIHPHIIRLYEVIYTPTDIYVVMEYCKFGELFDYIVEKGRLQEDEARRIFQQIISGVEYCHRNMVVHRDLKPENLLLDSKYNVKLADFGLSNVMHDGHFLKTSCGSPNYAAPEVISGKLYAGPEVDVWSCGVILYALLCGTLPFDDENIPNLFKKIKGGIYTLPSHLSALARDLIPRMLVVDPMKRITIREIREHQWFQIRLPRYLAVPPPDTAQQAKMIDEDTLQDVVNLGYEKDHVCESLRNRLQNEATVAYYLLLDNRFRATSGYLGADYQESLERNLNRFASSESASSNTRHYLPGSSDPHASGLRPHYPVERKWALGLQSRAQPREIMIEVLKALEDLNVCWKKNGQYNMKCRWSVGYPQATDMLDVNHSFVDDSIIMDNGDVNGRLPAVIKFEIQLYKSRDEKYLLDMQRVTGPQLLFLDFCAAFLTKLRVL
Description: two-hybrid; direct test; pGADT7 (AD) and pGBKT7 (BD) fusions in S. cerevisiae AH109; spotted on SD lacking leucine, tryptophan, histidine and adenine.

Turning to “Heading date 1 (HD1), yeast hybrid fusion (from UniProt Q9FDX8 1-395)”, the binding result was “no binding”.

B1: Early heading date 1 (EHD1), yeast hybrid fusion (protein, UniProt Q7Y0W5 1-341)
chain: MDHRELWPYGLRVLVIDDDCSYLSVMEDLLLKCSYKVTTYKNVREAVPFILDNPQIVDLVISDAFFPTEDGLLILQEVTSKFGIPTVIMASSGDTNTVMKYVANGAFDFLLKPVRIEELSNIWQHIFRKQMQDHKNNNMVGNLEKPGHPPSILAMARATPATTRSTATEASLAPLENEVRDDMVNYNGEITDIRDLGKSRLTWTTQLHRQFIAAVNHLGEDKAVPKKILGIMKVKHLTREQVASHLQKYRMQLKKSIPTTSKHGATLSSTALDKTQDHPSRSQYFNQDGCKEIMDYSLPRDDLSSGSECMLEELNDYSSEGFQDFRWDSDKQEYGPCFWNF
As for B1, the binding entry was “no binding”.
